This note sets out measurements from PMC7819943, “Rice protein-binding microarrays: a tool to detect cis-acting elements near promoter regions in rice”.

Some of the results follow.

This assay deals with T1, OsSMF1 (Oryza sativa, UniProt Q6ZLB0 1-436).
T1 sequence: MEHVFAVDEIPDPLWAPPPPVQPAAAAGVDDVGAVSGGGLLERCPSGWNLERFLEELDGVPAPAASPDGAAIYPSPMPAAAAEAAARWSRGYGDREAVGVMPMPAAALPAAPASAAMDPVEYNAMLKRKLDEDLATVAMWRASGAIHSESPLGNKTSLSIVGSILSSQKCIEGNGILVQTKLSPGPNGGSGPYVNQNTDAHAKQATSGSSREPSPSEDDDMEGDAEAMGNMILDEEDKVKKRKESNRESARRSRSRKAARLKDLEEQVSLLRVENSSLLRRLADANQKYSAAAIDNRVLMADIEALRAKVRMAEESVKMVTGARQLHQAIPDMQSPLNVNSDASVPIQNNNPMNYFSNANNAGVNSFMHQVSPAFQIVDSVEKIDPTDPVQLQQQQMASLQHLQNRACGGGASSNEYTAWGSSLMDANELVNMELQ
Put plainly: protein-binding microarray (RPBM); PBS, 2% BSA, 51.3 ng/ul salmon testes DNA, 50 uM zinc acetate, 200 nM TF, 25 C, 1 h; high values mean tight binding. The note with it: protein: recombinant; tags: N-terminal polyhistidine and DsRed monomer fusion (pET32a); chain copies: 2; label: CyDye5-dUTP incorporated in the synthesized complementary strand; 3' TTTTT single-stranded linker to array surface; dsDNA, one strand shown. Summed up:
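Transcription factors were made in E. coli BL21-CodonPlus as N-terminal fusions to a polyhistidine tag and DsRed, then purified on Ni–NTA. After primer extension with Cy5-dUTP and blocking with 2% BSA, a custom Agilent array was exposed for 1 h at 25 °C to 200 nM protein in PBS, 2% BSA, salmon testes DNA and 50 µM zinc acetate. Washed arrays were scanned on an Axon 4000B, and the binding signal is per-feature fluorescence intensity in arbitrary units.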
On to “GTGAAGGAGCCGCCACGTCTGACTTTTCTTTCTTCTCTCTCGGAGTCACCTAGTGCAG”, for which the binding signal is 11800 fluorescence intensity (a.u.).
Regarding “TCGAGGCTCGCAGCTCGAACCTTCCTGACACGGTAGCCTTCGGAGTCACCTAGTGCAG”, the binding signal was 4060 fluorescence intensity (a.u.).
The value for “CCTACCACTGTTGAGTAACCACGTCTTTCGACGTATGCAGCGGAGTCACCTAGTGCAG” was 6930 fluorescence intensity (a.u.); that for “TCCTCTCGGATTCCTCCCTCGCTGAAGCACGTGGCAGTGCCGGAGTCACCTAGTGCAG” was 5040 fluorescence intensity (a.u.); that for “AAGACCTCTCTCTCTCTCTCACTCCAAGAACTCCACGCCACGGAGTCACCTAGTGCAG” was 20000 fluorescence intensity (a.u.).
With “GCTAGCTAGCTATAGCCACCTAATTCATCGCCACGTACAACGGAGTCACCTAGTGCAG”, the binding signal was 3940 fluorescence intensity (a.u.).
As for “GTTTCGTCTCGTAATTTACACGCAATCTGTGTAATTAGTTCGGAGTCACCTAGTGCAG”, the binding signal was 3460 fluorescence intensity (a.u.).
Next, “TAGGCTCGGCCGCCGCCGTCTCTCCCCGTCACGGGCCCGGCGGAGTCACCTAGTGCAG”: 3480 fluorescence intensity (a.u.); “GAAGCTGCGTGCGCGGATGCGTTGAGACGGCCACGTGGCGCGGAGTCACCTAGTGCAG”: 26300 fluorescence intensity (a.u.); “GTACAGATTTCTACAGCAGCCTTGTCATTCATAAACCAGTCGGAGTCACCTAGTGCAG”: 4090 fluorescence intensity (a.u.).
“TTCCTGTCTAGCTGATGTAGTCGTACTTTGCAATTTGCATCGGAGTCACCTAGTGCAG”: the binding signal was 3480 fluorescence intensity (a.u.).
The value for “GGGAAACTCTTCCGTCACCGCCTACCTCACCTCCTCCTACCGGAGTCACCTAGTGCAG” was 3150 fluorescence intensity (a.u.).
As to “ATCCAATCTGAGCCGTCCGCTGTACACCGTAGATCTATATCGGAGTCACCTAGTGCAG”, the binding signal is 3450 fluorescence intensity (a.u.).
Regarding “GATCGATCGATCCACGCGCCCGCGCGCCACCGCCGCTGATCGGAGTCACCTAGTGCAG”, the binding signal was 3370 fluorescence intensity (a.u.).
The value for “GGTGTTTAGTTTATTACGATATATTGGTCATGTCTAAAGACGGAGTCACCTAGTGCAG” was 20300 fluorescence intensity (a.u.); that for “ATCTCCATCTCTATGTGTTACTATGTTATGCGTGTATCGTCGGAGTCACCTAGTGCAG” was 3990 fluorescence intensity (a.u.).
The value for “CATTCATGAGGAGAATCATTCACATCCTACACGTGTAGAGCGGAGTCACCTAGTGCAG” was 5210 fluorescence intensity (a.u.).
Next, “GGCTGTGGGCAGAGAGGAGTTGATGGTGACGAAGGCAGCACGGAGTCACCTAGTGCAG”: 4290 fluorescence intensity (a.u.); “TGCTTGAAGCGAAGTATCAGGTGTGTGTCAGTTGGGTCTCCGGAGTCACCTAGTGCAG”: 4890 fluorescence intensity (a.u.).
“CCTCCGGTGTGATCCGATCACGCGCGGCCTCTCCGCCTCCCGGAGTCACCTAGTGCAG”: the binding signal is 3490 fluorescence intensity (a.u.).
Regarding “AATATGCCGTCACCGATGCTGATGATGCGGATCTCTGGCGCGGAGTCACCTAGTGCAG”, the binding signal is 4000 fluorescence intensity (a.u.).
Turning to “CCTGAATCCATGCTTATTCGGTCATGCTTATGCATGCAGTCGGAGTCACCTAGTGCAG”, the binding signal was 4490 fluorescence intensity (a.u.).
Next, “CGCTTCGTCATCTCGTCGTCGTTTGTGTTCTTGGATTGGGCGGAGTCACCTAGTGCAG”: 4250 fluorescence intensity (a.u.); “TGATGGAAAGTGGTGTCATGCCCACTTCTCTTGCTGGCCTCGGAGTCACCTAGTGCAG”: 4270 fluorescence intensity (a.u.); “GATAGATGACGTATTATTAGACAGTGATGCGCTTGTGGTGCGGAGTCACCTAGTGCAG”: 7250 fluorescence intensity (a.u.).
Next, “TTGAATAAACGAGGAGTTTCTGAAGTAGTGGCATGGTCTGCGGAGTCACCTAGTGCAG”: 15500 fluorescence intensity (a.u.); “TGAGGGGTCAGCCACTCTTTCTTCTTTGTCTTTATCAACTCGGAGTCACCTAGTGCAG”: 15600 fluorescence intensity (a.u.); “GGAGCGCCCATGGACGCCGCCACGACGTCCGGCCGCGCCGCGGAGTCACCTAGTGCAG”: 3670 fluorescence intensity (a.u.).
For the sequence “GGTCCTCTGCCAGGCACATGACGCTGCTATTGCTGCTTTGCGGAGTCACCTAGTGCAG”, the binding signal was 5460 fluorescence intensity (a.u.).
Next, “ATCTTGGCGTCAGTCTGGAGTGGGCTTTCCAAGCCTGGCCCGGAGTCACCTAGTGCAG”: 3200 fluorescence intensity (a.u.); “TCAGCCCCAGCCTCCATGCCTGTGAGAGAACAAGCCGGTTCGGAGTCACCTAGTGCAG”: 3530 fluorescence intensity (a.u.).
Consider “CGAGGAAATGGTGGCGTCACCTTGACCCTGGGAGAAGAGGCGGAGTCACCTAGTGCAG”, for which the binding signal is 8130 fluorescence intensity (a.u.).
Next, “TTCAGTTAATGCTAGTAGTTGCATTTGGTCCAATCTCACACGGAGTCACCTAGTGCAG”: 3220 fluorescence intensity (a.u.).
“TTGCTTCAATTCTCTCTCATGTGAGTCATGACATACATTGCGGAGTCACCTAGTGCAG”: the binding signal was 10500 fluorescence intensity (a.u.).
In the case of “AGCGCTCCCGGCCATTGGGAGCCACGTCAGCGGCGGCCTCCGGAGTCACCTAGTGCAG”, the binding signal is 32100 fluorescence intensity (a.u.).
Next, “TTCGTGTGCCTAGGAAAATGGTATCCAAACCCCTCAAAATCGGAGTCACCTAGTGCAG”: 4190 fluorescence intensity (a.u.).
On to “CCGCACGCTGTAGCAACATCTTCCAACATTGAAAGATCCCCGGAGTCACCTAGTGCAG”, for which the binding signal was 22400 fluorescence intensity (a.u.).
The value for “AACGCCACGCGCGCCCCGTCACGGTGGAAATGCCCGTTCTCGGAGTCACCTAGTGCAG” was 7420 fluorescence intensity (a.u.); that for “GACGCCATCTCCCCTATTCGCTACAGCGATGTCGTGTCATCGGAGTCACCTAGTGCAG” was 5590 fluorescence intensity (a.u.); that for “GCATAGGAAGGTGACATGGCATATCCATGTGGCGATTTTGCGGAGTCACCTAGTGCAG” was 7280 fluorescence intensity (a.u.).
Next, “CGACGACCACTGCCGGTGTAGATGTGGATGCCTCGGACGCCGGAGTCACCTAGTGCAG”: 4140 fluorescence intensity (a.u.); “ACCCTCCGTCGTCATTACACGCGGACTCGTCCTCCGCCGCCGGAGTCACCTAGTGCAG”: 6860 fluorescence intensity (a.u.).
